# Out of some 350,000 compounds screened, about 220 (0.063%) were called active. Inconclusive results, whose numbers are uncertain, are shown with a selection of clear calls. The call rests on the fitted dose curve; in most records, active means well fitted activation curve with a large enough effect; inconclusive means small, poorly fitted or top-dose-only effect; inactive means no such curve, though single readings can be large or run the other way. Potencies of inconclusive entries are doubtful fits and often do not repeat.
# Experiment: qHTS for Activators of Integrin-Mediated Alleviation for Muscular Dystrophy; further: nearly all actives have a fitted effect of over 60% in size;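 on activation: 100% = response of the positive control SU9516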
# Conditions: alpha7betagal myoblasts, beta-gal FDG fluorescence, 48 h; activation: at 38.3 µM (top of the series)
# Outline: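 alpha7betagal+/- myoblasts (passage 13, 250/well) treated 48 h at 37C with compounds at 1:260 dilution of DMSO stock. Lysed, then beta-galactosidase activity read as FDG fluorescence (ex 480/em 540) after 30 min, with pre-read for autofluorescence.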
# Potency means the concentration at half of the fitted maximal effect.
Structure (SMILES),Potency,activation
CC(=O)N1CCOc2ccc(S(=O)(=O)N3CCC(C(=O)Nc4cc(C)cc(C)c4)CC3)cc21,"inconclusive: 17.8 µM [activator, single point]",–
CCc1ccc(C2=NN(C(=O)OC)C(O)(C(F)(F)F)C2)cc1 (stereo not drawn),–,inactive: -1.79%
COc1ccc(-c2cc(COc3ccccc3)on2)cc1,active: 10 µM,–
CC(C)(C)OC(=O)N(CCc1ccccc1)Cc1ccc(OCc2cccc(NC(=O)c3ccccc3)c2)cc1,–,inactive: 8.71%
CCN(CC)S(=O)(=O)c1cccc(NC(=O)COC(=O)C2CC3C=CC2C3)c1 (stereo not drawn),"inconclusive: 3.55 µM [activator, partial curve, poor fit]",–
CN(C(=O)C1CCN(S(=O)(=O)c2cccs2)CC1)c1ccccc1,"inconclusive: 5.01 µM [activator, single point]",–
COc1ccc(C(C)=O)cc1COC(=O)Cc1cc(OC)c(OC)c(OC)c1,"inconclusive: 2.51 µM [activator, single point]",–
COc1ccc(OC)c(CN2CCN(c3ccccc3OC)CC2)c1,–,inactive: 7.41%
Cc1ccc(S(=O)(=O)N2CCN(C(=O)COC(=O)/C=C/c3ccccc3)CC2)c(C)c1,"inconclusive: 20 µM [activator, single point]",–
COc1ccc2[nH]c3c(=O)n(CCc4ccccc4)cnc3c2c1,"inconclusive: 10 µM [activator, single point]",–
COCCNC(=S)N1CCC(c2nc(-c3ccc(N(C)C)cc3)no2)CC1,"inconclusive: 2.82 µM [activator, single point]",–
Cc1nc(-c2ccccn2)nc(SCC(=O)c2ccc(F)cc2)c1Cl,–,inactive: 13.6%
CC(C)CCN1CCC(n2nccc2NC(=O)C2CCOC2)CC1 (stereo not drawn),"inconclusive: 5.01 µM [activator, single point]",–
O=C(O)COc1ccc(/C=C/c2nc(-c3ccccc3O)n[nH]2)cc1,"inconclusive: 12.6 µM [activator, single point]",–
CCc1cc(CNC(=O)CC2C(=O)NCCN2Cc2ccc(-c3ccccc3)cc2)on1 (stereo not drawn),"inconclusive: 2.24 µM [activator, partial curve, poor fit]",–
C=CCN(CC=C)c1ncnc2[nH]ncc12,"inconclusive: 2 µM [activator, full curve, poor fit]",–
Cc1ccnc(NC(=O)c2cc([N+](=O)[O-])cc([N+](=O)[O-])c2)c1,"inconclusive: 5.01 µM [activator, single point]",–
CCOC(=O)C1=C(C)NC(=O)NC1c1ccc(-c2ccc(Cl)cc2)o1 (stereo not drawn),"inconclusive: 17.8 µM [activator, single point]",–
Cc1cccc(NCc2ccccc2O)n1,–,inactive: 39%
CCOC(=O)c1cnc2c(ccc3ccccc32)c1N,"inconclusive: 28.2 µM [activator, single point]",–
Cc1ncc(CN2CCC(n3nccc3NC(=O)c3ccccc3)CC2)s1,–,inactive: 5.92%
CCOc1cccc(C(=O)Nc2ccccc2C(=O)N2CCOCC2)c1,"inconclusive: 2.82 µM [activator, single point]",–

# Entries of single compounds from above. Order of values: Potency | activation
# `CCc1ccc(C2=NN(C(=O)OC)C(O)(C(F)(F)F)C2)cc1` (stereo not drawn) is listed as – | inactive: -1.79%
# `CCOC(=O)c1cnc2c(ccc3ccccc32)c1N` is listed as inconclusive: 28.2 µM [activator, single point] | –
# `COCCNC(=S)N1CCC(c2nc(-c3ccc(N(C)C)cc3)no2)CC1` is listed as inconclusive: 2.82 µM [activator, single point] | –

# (list continues)

Structure (SMILES),Potency,activation
Cc1ccc(-c2nnc(N3CCCCCC3)c3ccccc23)cc1,"inconclusive: 28.2 µM [activator, single point]",–
COc1ccc(NC(=O)CC2CCCC2)cc1OC,"inconclusive: 5.01 µM [activator, single point]",–
CCNC(=O)N(CC)C[C@H]1N[C@@](C)(C(=O)OC)[C@H]2C(=O)N(C)C(=O)[C@@H]12,–,inactive: -35%
COc1ccc(COC(=O)C2=C(C)NC(=O)NC2c2ccc(O)cc2)cc1 (stereo not drawn),"inconclusive: 3.55 µM [activator, single point]",–
CCC(=O)OCC(=O)c1c(N)n(Cc2ccccc2)c(=O)n(C)c1=O,–,inactive: 7.23%
C=CCc1c(C)nc(-c2ccccc2)nc1N/N=C(\C)c1ccc(N)cc1,"inconclusive: 10 µM [activator, partial curve, poor fit]",–
Cc1cccc2nc(-c3ccco3)c(Nc3ccc4c(c3)OCCO4)n12,"inconclusive: 5.01 µM [activator, single point]",–
Cc1cc(NC(=O)COC(=O)C2CCC(=O)N2)c([N+](=O)[O-])cc1C (stereo not drawn),"inconclusive: 5.01 µM [activator, single point]",–
O=C(CSc1ccc(Cl)cc1)NC1CCCc2ccccc21 (stereo not drawn),"inconclusive: 10 µM [activator, single point]",–
Cc1cc(=O)n2[nH]cc(-c3ccccc3)c2n1,–,inactive: -1.9%
Cc1cc(C)nc(N2C(=O)CC(Cc3ccccc3)C2=O)n1 (stereo not drawn),"inconclusive: 14.1 µM [activator, single point]",–
CN(CC(=O)Nc1ccccc1Br)C(=O)c1ccccc1OCc1ccc(Cl)cc1,–,inactive: 10.7%
CC(=O)NC1=CC(=C[N+](=O)[O-])C=C1O,"inconclusive: 5.01 µM [activator, partial curve, poor fit]",–
O=C(COC(=O)C1CCN(c2ccc(C(F)(F)F)cn2)CC1)NCc1ccccc1,"inconclusive: 22.4 µM [activator, single point]",–
CN(CC(=O)Nc1ccc(N2CCOCC2)cc1)CC(=O)Nc1ccc(C(F)(F)F)cc1,"inconclusive: 3.16 µM [activator, partial curve, poor fit]",–
COc1ccccc1NS(=O)(=O)c1cc(NC(=O)c2ccncc2)ccc1N1CCCC1,"inconclusive: 3.55 µM [activator, full curve]",–
COc1ccc(-n2c(COc3cccc4cccnc34)nnc2SCC(=O)O)cc1,"inconclusive: 11.2 µM [activator, partial curve, poor fit]",–
Cc1cc(CSc2ccc(Cl)cc2)ccc1N,"inconclusive: 7.08 µM [activator, partial curve, poor fit]",–
Cc1ccc(N(C(=O)c2csnn2)C(C(=O)NC2CCCCC2)c2ccccn2)cc1C (stereo not drawn),"inconclusive: 5.01 µM [activator, single point]",–
Cc1cccc(Cn2cnc3c(nnn3Cc3ccc(Cl)cc3)c2=O)c1,"inconclusive: 11.2 µM [activator, partial curve, poor fit]",–
COc1ccc2c(CC(=O)OCC(=O)NC(=O)c3cccn3C)coc2c1,"inconclusive: 5.01 µM [activator, single point]",–

# Source: PubChem BioAssay AID624291 (National Center for Advancing Translational Sciences (NCATS), 2012)
